Test results published in patent US20240425865A1, “METHODS FOR TREATING CELLULAR INFLAMMATION INDUCED BY AFB1” (priority 2023, published 2024).
These are yes or no findings as the source states them, for the method shown. Binding seen in cells or lysates may run through a third protein. Some binding calls cover weakened binding; strength is not graded here.

Chains of the proteins cited; added tags and fusions are not shown.
UniProt Q04207: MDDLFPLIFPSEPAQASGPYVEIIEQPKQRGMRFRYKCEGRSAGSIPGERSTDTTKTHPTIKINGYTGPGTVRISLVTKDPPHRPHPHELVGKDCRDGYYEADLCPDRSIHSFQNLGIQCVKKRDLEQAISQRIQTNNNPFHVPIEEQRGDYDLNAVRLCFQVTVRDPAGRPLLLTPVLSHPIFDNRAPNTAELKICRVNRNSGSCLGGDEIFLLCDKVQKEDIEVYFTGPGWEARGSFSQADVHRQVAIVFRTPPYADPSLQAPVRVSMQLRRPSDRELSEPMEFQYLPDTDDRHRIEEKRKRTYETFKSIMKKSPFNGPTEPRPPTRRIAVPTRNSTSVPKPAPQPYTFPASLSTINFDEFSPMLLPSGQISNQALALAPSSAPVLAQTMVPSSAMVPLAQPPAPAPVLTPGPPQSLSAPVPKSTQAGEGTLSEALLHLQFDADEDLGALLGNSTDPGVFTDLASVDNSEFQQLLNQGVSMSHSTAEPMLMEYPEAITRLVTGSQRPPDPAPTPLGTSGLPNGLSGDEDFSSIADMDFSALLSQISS

Experiments:
[1] = target: E3 ubiquitin ligase TRIM7 (tripartite motif containing 7) (UniProt Q923T7); test: summary of the IP-MS and Co-IP/Western blot in MPC-5 cells
[2] = target: E3 ubiquitin ligase TRIM7 (tripartite motif containing 7) (UniProt Q923T7); test: IP-MS: RelA antibody immunoprecipitation from MPC-5 cells, LC-MS of co-precipitated proteins
[3] = target: E3 ubiquitin ligase TRIM7 (tripartite motif containing 7) (UniProt Q923T7); test: Co-IP from MPC-5 whole cell lysates with RelA antibody, Western blot; with or without AFB1 and MG-132

binding [1]: binds
binding [2]: binds
binding [3]: binds
Substance: transcription factor RelA (from UniProt Q04207 1-549)
